Data on one molecule can be found in US12502388B2, “Lanthionine synthetase C-like 2-based therapeutics” (NImmune Biopharma, Inc., priority 2014, dated 2025).

Protein sequences, listed by entry. Tags and fused reporters are not part of them.
UniProt Q9NS86, whole entry: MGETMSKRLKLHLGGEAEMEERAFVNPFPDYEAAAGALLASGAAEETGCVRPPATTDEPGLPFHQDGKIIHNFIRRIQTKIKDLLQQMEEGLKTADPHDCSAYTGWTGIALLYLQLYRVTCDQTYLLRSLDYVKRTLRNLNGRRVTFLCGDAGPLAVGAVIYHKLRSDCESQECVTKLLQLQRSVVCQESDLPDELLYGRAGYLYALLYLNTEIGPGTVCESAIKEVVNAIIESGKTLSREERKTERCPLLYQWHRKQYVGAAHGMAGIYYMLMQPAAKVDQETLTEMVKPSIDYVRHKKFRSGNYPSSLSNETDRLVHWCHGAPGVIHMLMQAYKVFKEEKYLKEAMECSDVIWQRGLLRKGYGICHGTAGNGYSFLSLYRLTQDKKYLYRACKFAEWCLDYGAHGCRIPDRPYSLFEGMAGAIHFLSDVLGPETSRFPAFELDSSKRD

The assay addresses LANCL2 (Homo sapiens, UniProt Q9NS86). Kind of assay: Surface plasmon resonance (BIACORE T200) binding to immobilized LANCL2. To be noted: read-out: SPR KD value; unit inferred. Background: Surface plasmon resonance follows binding to a sensor surface in real time, without labels.

Certain results were filed several times, with different values. Only these are listed. The source may hold further records. The values listed for one entry differ for a reason that is not stated; some may be repeats, others may stem from another dose, organism or construct than stated.

One may read the Kd as the equilibrium constant for the complex coming apart. `O=C(Nc1cccc(-c2nc3ccccc3[nH]2)c1)c1ccc(C(=O)Nc2cccc(-c3nc4ccccc4[nH]3)c2)cc1`: the Kd is 2.3 µM and 6.3 µM.
